Test results published in paper PMC1794522.
Results are given in words; binding and its absence hold for the method and conditions named. In cells and extracts the contact can be indirect. Some binding calls cover weakened binding; strength is not graded here.

The chains behind the UniProt entries cited, without tags or fusion partners.
UniProt P35568: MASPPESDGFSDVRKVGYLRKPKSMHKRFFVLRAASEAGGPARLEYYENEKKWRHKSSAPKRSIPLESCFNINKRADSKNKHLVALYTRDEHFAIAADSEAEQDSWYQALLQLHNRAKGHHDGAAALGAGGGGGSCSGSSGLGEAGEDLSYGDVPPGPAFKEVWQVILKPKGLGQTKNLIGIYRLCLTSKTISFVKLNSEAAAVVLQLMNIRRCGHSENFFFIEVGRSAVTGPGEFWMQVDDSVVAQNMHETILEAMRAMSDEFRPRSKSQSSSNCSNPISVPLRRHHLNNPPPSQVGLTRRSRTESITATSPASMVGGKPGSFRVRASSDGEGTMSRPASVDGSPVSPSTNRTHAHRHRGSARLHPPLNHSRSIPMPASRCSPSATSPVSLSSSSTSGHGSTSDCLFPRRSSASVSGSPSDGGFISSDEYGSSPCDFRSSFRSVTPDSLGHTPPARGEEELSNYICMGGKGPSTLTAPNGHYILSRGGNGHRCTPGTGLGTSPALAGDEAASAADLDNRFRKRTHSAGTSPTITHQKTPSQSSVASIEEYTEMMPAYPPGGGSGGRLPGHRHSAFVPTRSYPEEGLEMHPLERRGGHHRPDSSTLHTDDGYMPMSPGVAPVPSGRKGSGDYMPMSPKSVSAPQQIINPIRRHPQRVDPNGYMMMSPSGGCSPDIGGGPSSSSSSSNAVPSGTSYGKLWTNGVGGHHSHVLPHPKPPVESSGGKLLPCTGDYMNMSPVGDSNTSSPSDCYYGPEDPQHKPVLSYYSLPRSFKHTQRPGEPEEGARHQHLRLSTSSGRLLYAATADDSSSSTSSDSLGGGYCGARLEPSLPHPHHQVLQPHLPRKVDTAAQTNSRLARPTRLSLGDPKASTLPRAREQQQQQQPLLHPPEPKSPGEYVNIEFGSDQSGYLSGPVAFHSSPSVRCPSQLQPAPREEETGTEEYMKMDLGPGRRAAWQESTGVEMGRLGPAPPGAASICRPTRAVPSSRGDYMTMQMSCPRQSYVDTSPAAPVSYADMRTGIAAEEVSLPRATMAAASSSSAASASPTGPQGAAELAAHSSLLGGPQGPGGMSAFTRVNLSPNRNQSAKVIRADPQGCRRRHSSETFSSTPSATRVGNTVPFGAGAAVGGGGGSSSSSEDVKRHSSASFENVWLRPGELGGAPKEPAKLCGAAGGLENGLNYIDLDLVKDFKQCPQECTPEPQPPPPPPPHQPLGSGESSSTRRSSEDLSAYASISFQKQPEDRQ
UniProt P62993: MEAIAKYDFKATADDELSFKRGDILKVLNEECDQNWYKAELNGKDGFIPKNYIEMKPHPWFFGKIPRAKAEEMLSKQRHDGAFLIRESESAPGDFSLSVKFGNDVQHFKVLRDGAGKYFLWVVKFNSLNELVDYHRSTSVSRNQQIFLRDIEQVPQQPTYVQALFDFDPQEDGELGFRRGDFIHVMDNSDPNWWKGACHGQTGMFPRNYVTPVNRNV

Target: insulin receptor substrate (IRS)-1 (human (endogenous in primary subchondral bone osteoblasts)) (UniProt P35568)
Experiment: co-IP; 175 ug of RIPA lysate of primary normal or OA osteoblasts (serum-free overnight; basal or 50 ng/ml IGF-1 for various times) incubated with 4 ug anti-IRS-1 antibody overnight at 4 C; SDS-PAGE and western blot of the partner

binding: binds weakly
Substance: Grb2 (from UniProt P62993 1-217)
